# The other results are listed elsewhere or left out. Only a few entries rise above the background.
# B1: 4-80.1 (protein)
# chain 1: QVQLQESGPGLVKPSETLSLTCAVSGIPISTYWWSWIRQTPEKGLEWIGEIDGNGGGTNYNPSLQSRVTFSKDASKNQFSLRLNSVTAADTAVFYCARLWGNAYWGQGVLVTVSS
# chain 2: DVVMTQSPLSLPINPGQPASISCRSSQSLVYSDGKTYLTWYQQKPGQPPRRLIYQVSKRDSGVPDRFSGSGAGTDFTLKISRVESEDVGIYYCLQGTHLPYTFGQGTKVEIK
# Experiments:
# Assay in all cases: fluorescence intensity of antibody binding to polysaccharide-coupled beads; higher = stronger binding
# [1] = biological target: pneumococcal polysaccharide Pn15B
# [2] = biological target: pneumococcal polysaccharide Pn15C
# [3] = biological target: pneumococcal polysaccharide Pn15F
# [4] = biological target: pneumococcal polysaccharide Pn16A
# [5] = biological target: pneumococcal polysaccharide Pn16F
# [6] = biological target: pneumococcal polysaccharide Pn17A
# [7] = biological target: pneumococcal polysaccharide Pn17F
# [8] = biological target: pneumococcal polysaccharide Pn18A
# [9] = biological target: pneumococcal polysaccharide Pn18B
# [10] = biological target: pneumococcal polysaccharide Pn18C
# [11] = biological target: pneumococcal polysaccharide Pn18F
# [12] = biological target: pneumococcal polysaccharide Pn19A
# [13] = biological target: pneumococcal polysaccharide Pn19B
# [14] = biological target: pneumococcal polysaccharide Pn19C
# [15] = biological target: pneumococcal polysaccharide Pn19F
# [16] = biological target: pneumococcal polysaccharide Pn2
# [17] = biological target: pneumococcal polysaccharide Pn20A
# [18] = biological target: pneumococcal polysaccharide Pn20B
# [19] = biological target: pneumococcal polysaccharide Pn21
# [20] = biological target: pneumococcal polysaccharide Pn22A
# [21] = biological target: pneumococcal polysaccharide Pn22F
# [22] = biological target: pneumococcal polysaccharide Pn23A
# [23] = biological target: pneumococcal polysaccharide Pn23B
# [24] = biological target: pneumococcal polysaccharide Pn23F
# [25] = antibody concentration 2337.65 ng/mL
# [26] = antibody concentration 12500 ng/mL
# [27] = antibody concentration 0.1 ng/mL
# [28] = antibody concentration 0.534724 ng/mL
# [29] = antibody concentration 2.8593 ng/mL
# [30] = antibody concentration 15.2894 ng/mL
# [31] = antibody concentration 81.7561 ng/mL
# [32] = antibody concentration 437.17 ng/mL
binder,measurement,setting,value
B1,fluorescence intensity,[1]; [25],582 MFI
same,fluorescence intensity,[1]; [26],816 MFI
same,fluorescence intensity,[2]; [27],19.5 MFI
same,fluorescence intensity,[2]; [28],18 MFI
same,fluorescence intensity,[2]; [29],17.5 MFI
same,fluorescence intensity,[2]; [30],18 MFI
same,fluorescence intensity,[2]; [31],24 MFI
same,fluorescence intensity,[2]; [32],71.5 MFI
same,fluorescence intensity,[2]; [25],178 MFI
same,fluorescence intensity,[2]; [26],194 MFI
same,fluorescence intensity,[3]; [27],18.8 MFI
same,fluorescence intensity,[3]; [28],21 MFI
same,fluorescence intensity,[3]; [29],42.8 MFI
same,fluorescence intensity,[3]; [30],279 MFI
same,fluorescence intensity,[3]; [31],1010 MFI
same,fluorescence intensity,[3]; [32],2880 MFI
same,fluorescence intensity,[3]; [25],3600 MFI
same,fluorescence intensity,[3]; [26],3630 MFI
same,fluorescence intensity,[4]; [27],14.8 MFI
same,fluorescence intensity,[4]; [28],14.5 MFI
same,fluorescence intensity,[4]; [29],14.5 MFI
same,fluorescence intensity,[4]; [30],15 MFI
same,fluorescence intensity,[4]; [31],23 MFI
same,fluorescence intensity,[4]; [32],56 MFI
same,fluorescence intensity,[4]; [25],160 MFI
same,fluorescence intensity,[4]; [26],301 MFI
same,fluorescence intensity,[5]; [27],23 MFI
same,fluorescence intensity,[5]; [28],25.5 MFI
same,fluorescence intensity,[5]; [29],24 MFI
same,fluorescence intensity,[5]; [30],24.8 MFI
same,fluorescence intensity,[5]; [31],26.8 MFI
same,fluorescence intensity,[5]; [32],59.5 MFI
same,fluorescence intensity,[5]; [25],122 MFI
same,fluorescence intensity,[5]; [26],206 MFI
same,fluorescence intensity,[6]; [27],20 MFI
same,fluorescence intensity,[6]; [28],21 MFI
same,fluorescence intensity,[6]; [29],22 MFI
same,fluorescence intensity,[6]; [30],27 MFI
same,fluorescence intensity,[6]; [31],87 MFI
same,fluorescence intensity,[6]; [32],660 MFI
same,fluorescence intensity,[6]; [25],1370 MFI
same,fluorescence intensity,[6]; [26],1840 MFI
same,fluorescence intensity,[7]; [27],26.5 MFI
same,fluorescence intensity,[7]; [28],26.5 MFI
same,fluorescence intensity,[7]; [29],28 MFI
same,fluorescence intensity,[7]; [30],54.5 MFI
same,fluorescence intensity,[7]; [31],218 MFI
same,fluorescence intensity,[7]; [32],1100 MFI
same,fluorescence intensity,[7]; [25],1810 MFI
same,fluorescence intensity,[7]; [26],2040 MFI
same,fluorescence intensity,[8]; [27],23.5 MFI
same,fluorescence intensity,[8]; [28],24.5 MFI
same,fluorescence intensity,[8]; [29],23 MFI
same,fluorescence intensity,[8]; [30],27 MFI
same,fluorescence intensity,[8]; [31],42.2 MFI
same,fluorescence intensity,[8]; [32],265 MFI
same,fluorescence intensity,[8]; [25],690 MFI
same,fluorescence intensity,[8]; [26],1060 MFI
same,fluorescence intensity,[9]; [27],30 MFI
same,fluorescence intensity,[9]; [28],30.5 MFI
same,fluorescence intensity,[9]; [29],38.8 MFI
same,fluorescence intensity,[9]; [30],125 MFI
same,fluorescence intensity,[9]; [31],419 MFI
same,fluorescence intensity,[9]; [32],1270 MFI
same,fluorescence intensity,[9]; [25],1750 MFI
same,fluorescence intensity,[9]; [26],1930 MFI
same,fluorescence intensity,[10]; [27],20.5 MFI
same,fluorescence intensity,[10]; [28],20 MFI
same,fluorescence intensity,[10]; [29],18.5 MFI
same,fluorescence intensity,[10]; [30],22.5 MFI
same,fluorescence intensity,[10]; [31],33.5 MFI
same,fluorescence intensity,[10]; [32],180 MFI
same,fluorescence intensity,[10]; [25],369 MFI
same,fluorescence intensity,[10]; [26],534 MFI
same,fluorescence intensity,[11]; [27],23.5 MFI
same,fluorescence intensity,[11]; [28],23 MFI
same,fluorescence intensity,[11]; [29],23.5 MFI
same,fluorescence intensity,[11]; [30],26 MFI
same,fluorescence intensity,[11]; [31],47.5 MFI
same,fluorescence intensity,[11]; [32],254 MFI
same,fluorescence intensity,[11]; [25],607 MFI
same,fluorescence intensity,[11]; [26],916 MFI
same,fluorescence intensity,[12]; [27],18 MFI
same,fluorescence intensity,[12]; [28],19.8 MFI
same,fluorescence intensity,[12]; [29],18.5 MFI
same,fluorescence intensity,[12]; [30],22.8 MFI
same,fluorescence intensity,[12]; [31],56.5 MFI
same,fluorescence intensity,[12]; [32],271 MFI
same,fluorescence intensity,[12]; [25],517 MFI
same,fluorescence intensity,[12]; [26],707 MFI
same,fluorescence intensity,[13]; [27],31 MFI
same,fluorescence intensity,[13]; [28],28 MFI
same,fluorescence intensity,[13]; [29],30 MFI
same,fluorescence intensity,[13]; [30],29.5 MFI
same,fluorescence intensity,[13]; [31],34 MFI
same,fluorescence intensity,[13]; [32],59.5 MFI
same,fluorescence intensity,[13]; [25],118 MFI
same,fluorescence intensity,[13]; [26],275 MFI
same,fluorescence intensity,[14]; [27],25.5 MFI
same,fluorescence intensity,[14]; [28],26.5 MFI
same,fluorescence intensity,[14]; [29],25.5 MFI
same,fluorescence intensity,[14]; [30],27 MFI
same,fluorescence intensity,[14]; [31],31.5 MFI
same,fluorescence intensity,[14]; [32],143 MFI
same,fluorescence intensity,[14]; [25],528 MFI
same,fluorescence intensity,[14]; [26],1100 MFI
same,fluorescence intensity,[15]; [27],25.5 MFI
same,fluorescence intensity,[15]; [28],28 MFI
same,fluorescence intensity,[15]; [29],30.5 MFI
same,fluorescence intensity,[15]; [30],65.5 MFI
same,fluorescence intensity,[15]; [31],263 MFI
same,fluorescence intensity,[15]; [32],912 MFI
same,fluorescence intensity,[15]; [25],1460 MFI
same,fluorescence intensity,[15]; [26],1760 MFI
same,fluorescence intensity,[16]; [27],20.5 MFI
same,fluorescence intensity,[16]; [28],20.5 MFI
same,fluorescence intensity,[16]; [29],19.5 MFI
same,fluorescence intensity,[16]; [30],26 MFI
same,fluorescence intensity,[16]; [31],74.5 MFI
same,fluorescence intensity,[16]; [32],468 MFI
same,fluorescence intensity,[16]; [25],995 MFI
same,fluorescence intensity,[16]; [26],1250 MFI
same,fluorescence intensity,[17]; [27],23 MFI
same,fluorescence intensity,[17]; [28],23.5 MFI
same,fluorescence intensity,[17]; [29],22 MFI
same,fluorescence intensity,[17]; [30],27 MFI
same,fluorescence intensity,[17]; [31],58 MFI
same,fluorescence intensity,[17]; [32],416 MFI
same,fluorescence intensity,[17]; [25],960 MFI
same,fluorescence intensity,[17]; [26],1340 MFI
same,fluorescence intensity,[18]; [27],24 MFI
same,fluorescence intensity,[18]; [28],24 MFI
same,fluorescence intensity,[18]; [29],23.5 MFI
same,fluorescence intensity,[18]; [30],24.5 MFI
same,fluorescence intensity,[18]; [31],24.5 MFI
same,fluorescence intensity,[18]; [32],30.5 MFI
same,fluorescence intensity,[18]; [25],51.5 MFI
same,fluorescence intensity,[18]; [26],108 MFI
same,fluorescence intensity,[19]; [27],17.2 MFI
same,fluorescence intensity,[19]; [28],19.8 MFI
same,fluorescence intensity,[19]; [29],20 MFI
same,fluorescence intensity,[19]; [30],18.8 MFI
same,fluorescence intensity,[19]; [31],20.2 MFI
same,fluorescence intensity,[19]; [32],21 MFI
same,fluorescence intensity,[19]; [25],23.5 MFI
same,fluorescence intensity,[19]; [26],36.8 MFI
same,fluorescence intensity,[20]; [27],22 MFI
same,fluorescence intensity,[20]; [28],21.5 MFI
same,fluorescence intensity,[20]; [29],22 MFI
same,fluorescence intensity,[20]; [30],30.5 MFI
same,fluorescence intensity,[20]; [31],63.5 MFI
same,fluorescence intensity,[20]; [32],370 MFI
same,fluorescence intensity,[20]; [25],901 MFI
same,fluorescence intensity,[20]; [26],1330 MFI
same,fluorescence intensity,[21]; [27],31.8 MFI
same,fluorescence intensity,[21]; [28],31 MFI
same,fluorescence intensity,[21]; [29],28.2 MFI
same,fluorescence intensity,[21]; [30],41 MFI
same,fluorescence intensity,[21]; [31],136 MFI
same,fluorescence intensity,[21]; [32],505 MFI
same,fluorescence intensity,[21]; [25],817 MFI
same,fluorescence intensity,[21]; [26],1020 MFI
same,fluorescence intensity,[22]; [27],24.8 MFI
same,fluorescence intensity,[22]; [28],25.2 MFI
same,fluorescence intensity,[22]; [29],25.5 MFI
same,fluorescence intensity,[22]; [30],30 MFI
same,fluorescence intensity,[22]; [31],50 MFI
same,fluorescence intensity,[22]; [32],160 MFI
same,fluorescence intensity,[22]; [25],316 MFI
same,fluorescence intensity,[22]; [26],443 MFI
same,fluorescence intensity,[23]; [27],30.5 MFI
same,fluorescence intensity,[23]; [28],30 MFI
same,fluorescence intensity,[23]; [29],28.8 MFI
same,fluorescence intensity,[23]; [30],31 MFI
same,fluorescence intensity,[23]; [31],31.8 MFI
same,fluorescence intensity,[23]; [32],49.2 MFI
same,fluorescence intensity,[23]; [25],141 MFI
same,fluorescence intensity,[23]; [26],307 MFI
same,fluorescence intensity,[24]; [27],18.5 MFI
same,fluorescence intensity,[24]; [28],17.5 MFI

# 3 entries drawn at random from the list so far, as already listed:
binder,measurement,setting,value
B1,fluorescence intensity,[18]; [28],24 MFI
same,fluorescence intensity,[16]; [30],26 MFI
same,fluorescence intensity,[4]; [29],14.5 MFI

# Reformatted: results already given.
binder | measurement | setting | value
B1 | fluorescence intensity | [9]; [29] | 38.8 MFI
same | fluorescence intensity | [15]; [29] | 30.5 MFI
same | fluorescence intensity | [18]; [29] | 23.5 MFI
same | fluorescence intensity | [19]; [31] | 20.2 MFI
same | fluorescence intensity | [20]; [31] | 63.5 MFI
same | fluorescence intensity | [20]; [32] | 370 MFI

# Two entries from above in another layout:
binder	measurement	setting	value
B1	fluorescence intensity	[8]; [27]	23.5 MFI
same	fluorescence intensity	[8]; [28]	24.5 MFI
